For this experiment, the target named is Ubiquitin-conjugating enzyme E2S (human (endogenous in T24 and UM-UC-3)) (UniProt Q16763). As to the kind of experiment: co-IP; endogenous proteins in lysates of wild-type T24 and UM-UC-3 cells; 2 ug of the corresponding antibody overnight at 4 C, Protein A/G magnetic beads 2 h at room temperature, western blot.

The chains behind the UniProt entries cited, without tags or fusion partners. Where a name states a change or a piece, a line headed by the entry shows the natural chain unless it says otherwise.
UniProt Q16763: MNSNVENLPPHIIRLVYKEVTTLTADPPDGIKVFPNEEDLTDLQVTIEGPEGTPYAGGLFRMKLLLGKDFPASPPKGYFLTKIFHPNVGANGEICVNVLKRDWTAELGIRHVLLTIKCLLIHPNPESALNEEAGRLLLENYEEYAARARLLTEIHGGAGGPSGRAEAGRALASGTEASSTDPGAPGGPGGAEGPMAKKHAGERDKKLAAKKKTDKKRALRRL
UniProt P19474: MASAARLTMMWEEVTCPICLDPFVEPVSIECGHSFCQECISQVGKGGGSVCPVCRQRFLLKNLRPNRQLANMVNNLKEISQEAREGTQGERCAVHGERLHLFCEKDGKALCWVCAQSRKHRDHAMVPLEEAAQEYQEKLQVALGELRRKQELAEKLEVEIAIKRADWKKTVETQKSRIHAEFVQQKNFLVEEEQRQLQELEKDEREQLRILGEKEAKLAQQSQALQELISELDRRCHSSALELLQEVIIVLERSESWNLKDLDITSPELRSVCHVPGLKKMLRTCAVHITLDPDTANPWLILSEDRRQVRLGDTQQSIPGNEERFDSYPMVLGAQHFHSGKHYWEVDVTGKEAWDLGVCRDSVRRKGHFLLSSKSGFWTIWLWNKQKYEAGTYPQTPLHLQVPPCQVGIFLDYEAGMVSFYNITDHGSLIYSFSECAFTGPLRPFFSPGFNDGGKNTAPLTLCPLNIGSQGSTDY

No constants are given. Whether binding was seen depends on the method and setting. Binding seen in cells or lysates may run through a third protein. Some results given as binding are weak or reduced against the parent protein; the word gives no strength.

Turning to “tripartite motif containing 21 (from UniProt P19474 1-475) (enzyme)”, the binding entry was “binds”.

These data come from paper PMC10329682.
